# Data: publication PMC7819943, “Rice protein-binding microarrays: a tool to detect cis-acting elements near promoter regions in rice”
# The chains behind the UniProt entries cited, without tags or fusion partners.
# UniProt Q0JBA9, entry or part of it: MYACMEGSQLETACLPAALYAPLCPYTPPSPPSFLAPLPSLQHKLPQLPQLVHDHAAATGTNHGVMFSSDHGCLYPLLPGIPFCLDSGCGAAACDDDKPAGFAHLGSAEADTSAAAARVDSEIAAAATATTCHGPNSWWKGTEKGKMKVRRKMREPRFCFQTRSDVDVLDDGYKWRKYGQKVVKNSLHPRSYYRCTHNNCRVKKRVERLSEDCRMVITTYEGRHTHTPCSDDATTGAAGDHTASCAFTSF
# The list shows a part of the results.
# Target: OsWRKY34 (Oryza sativa, UniProt Q0JBA9 1-250)
# Assay: protein-binding microarray (RPBM); PBS, 2% BSA, 51.3 ng/ul salmon testes DNA, 50 uM zinc acetate, 200 nM TF, 25 C, 1 h; high values mean tight binding
# Conditions: protein: recombinant; tags: N-terminal polyhistidine and DsRed monomer fusion (pET32a); label: CyDye5-dUTP incorporated in the synthesized complementary strand; 3' TTTTT single-stranded linker to array surface; dsDNA, one strand shown
# Method in brief: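 Transcription factors were each fused at the N-terminus to a polyhistidine tag plus DsRed and expressed in E. coli BL21-CodonPlus before Ni–NTA purification. Binding to a double-stranded custom Agilent array was carried out with 200 nM protein at 25 °C for 1 h in PBS, 2% BSA, salmon testes DNA and 50 µM zinc acetate. The binding signal is per-feature fluorescence intensity, in arbitrary units, on an Axon 4000B scanner.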
row,Sequence,binding signal
1,TCATAACAGTCAAAAATTTGCTAGGTCTGTCCTTATGTCACGGAGTCACCTAGTGCAG,9350 fluorescence intensity (a.u.)
2,ATTCCACCGTAGTCGTACCCCGCCCTCTGCTTTTACTAGTCGGAGTCACCTAGTGCAG,14000 fluorescence intensity (a.u.)
3,CCCCTCGAGTCTGATCCTCCCACTACCAACGTCCACCGGCCGGAGTCACCTAGTGCAG,9210 fluorescence intensity (a.u.)
4,GTCGTGCCGTCTCCAGTCCCGTCGCCGCGCCGCCTCCTCGCGGAGTCACCTAGTGCAG,12900 fluorescence intensity (a.u.)
5,ATTGCTTTGTAGTAATCCATCCATGCACCCACCTCTCTTTCGGAGTCACCTAGTGCAG,9200 fluorescence intensity (a.u.)
6,CATAACAACATACAAATCAAGCTATACATCCATGATTTTTCGGAGTCACCTAGTGCAG,8720 fluorescence intensity (a.u.)
7,CCTAGCTATGACTATCAATATCCTATATCCTATGCCGTTTCGGAGTCACCTAGTGCAG,9370 fluorescence intensity (a.u.)
8,GCCATCTATCTTTCCACAATATATACTCACCTTCACCACCCGGAGTCACCTAGTGCAG,8500 fluorescence intensity (a.u.)
9,GTATTGTGTCCGGTTTTAACGCCTACGTGGCTTCTTTTGACGGAGTCACCTAGTGCAG,12200 fluorescence intensity (a.u.)
10,CGGACCCTCATATTATCCATTGCTTACTGTTTCAGCAATTCGGAGTCACCTAGTGCAG,8330 fluorescence intensity (a.u.)
11,TGGAGTACCACCTTTGGTTTGTTCAAGCTGTTTTCTTTTTCGGAGTCACCTAGTGCAG,9850 fluorescence intensity (a.u.)
12,TAGTTGTTGTTGTTGTTATTTGTTAATTGGGCCTTGTTCACGGAGTCACCTAGTGCAG,12300 fluorescence intensity (a.u.)
13,TTCCATTTCTTGGCACCACCTCCGAGGCTCTGACTTCCTACGGAGTCACCTAGTGCAG,8030 fluorescence intensity (a.u.)
14,ACATGTCGCTCACCGCTGTGAGATTCCTTAACCGGGCTAGCGGAGTCACCTAGTGCAG,8340 fluorescence intensity (a.u.)
15,TGGCCTGCGGGACTTCACCCTCGTTCGCTGCCTGGGCGCCCGGAGTCACCTAGTGCAG,8490 fluorescence intensity (a.u.)
16,CTCGCTAACGTCTCTCTGCCGCTGTCCCCTTCTCCGGATCCGGAGTCACCTAGTGCAG,12400 fluorescence intensity (a.u.)
17,TCCATATACTCCCTCCGTCCCTAAATATTTGACGCCATTGCGGAGTCACCTAGTGCAG,8190 fluorescence intensity (a.u.)
18,GACCGCGCATCGTCTCCTCCGCCAGCAAACCACTGCTCTTCGGAGTCACCTAGTGCAG,9210 fluorescence intensity (a.u.)
19,AAGGGTGATTAACTTTGGGAAGGGTTGGGGCAGTTGATGTCGGAGTCACCTAGTGCAG,9440 fluorescence intensity (a.u.)
20,CCGCCGCCAGCCGCCACCACTCCGGCCCATGCCCGCCGCCCGGAGTCACCTAGTGCAG,9620 fluorescence intensity (a.u.)
21,TCTCCGTTGTAATATGTTCTTTGTCCTCGATGTGTTTCCGCGGAGTCACCTAGTGCAG,11400 fluorescence intensity (a.u.)

# 6 entries from above, bar-delimited:
row | Sequence | binding signal
11 | TGGAGTACCACCTTTGGTTTGTTCAAGCTGTTTTCTTTTTCGGAGTCACCTAGTGCAG | 9850 fluorescence intensity (a.u.)
12 | TAGTTGTTGTTGTTGTTATTTGTTAATTGGGCCTTGTTCACGGAGTCACCTAGTGCAG | 12300 fluorescence intensity (a.u.)
13 | TTCCATTTCTTGGCACCACCTCCGAGGCTCTGACTTCCTACGGAGTCACCTAGTGCAG | 8030 fluorescence intensity (a.u.)
14 | ACATGTCGCTCACCGCTGTGAGATTCCTTAACCGGGCTAGCGGAGTCACCTAGTGCAG | 8340 fluorescence intensity (a.u.)
15 | TGGCCTGCGGGACTTCACCCTCGTTCGCTGCCTGGGCGCCCGGAGTCACCTAGTGCAG | 8490 fluorescence intensity (a.u.)
16 | CTCGCTAACGTCTCTCTGCCGCTGTCCCCTTCTCCGGATCCGGAGTCACCTAGTGCAG | 12400 fluorescence intensity (a.u.)

# (further entries)

row,Sequence,binding signal
1,TTTCACCCTATCACATTGAATATTTGGACACATGCATGGACGGAGTCACCTAGTGCAG,8850 fluorescence intensity (a.u.)
2,TCAATCGCACATCCTCCTATCCGGAGGCATGATTTTGTTACGGAGTCACCTAGTGCAG,8740 fluorescence intensity (a.u.)
3,ATTCTTGAAGGCCGTGATGGGGAGGCTGTTCATGGCGCTGCGGAGTCACCTAGTGCAG,8510 fluorescence intensity (a.u.)
4,ATGTAAGTCATTTTAGCATTTCTCACATTTATATTTATGCCGGAGTCACCTAGTGCAG,9330 fluorescence intensity (a.u.)
5,TTAGTACTATTAATTTGGTGGGGTTGGGTGGGTGCTGTAACGGAGTCACCTAGTGCAG,16700 fluorescence intensity (a.u.)
6,ATGGCTGAGTTGATTGGTCTTTCATTTGCTAAAGGTATGACGGAGTCACCTAGTGCAG,8400 fluorescence intensity (a.u.)
7,GTCCTTCTACCTTCTTTGCAGTTGGCCGTAATAGTAATACCGGAGTCACCTAGTGCAG,9180 fluorescence intensity (a.u.)
8,CAGTTTATTCCGCGTTCGTGTGTAGCTTACCGTGACTTTTCGGAGTCACCTAGTGCAG,11500 fluorescence intensity (a.u.)
9,AACCTCCGATTTCCAGTCCATTCTCCTCCATGATCCAAACCGGAGTCACCTAGTGCAG,9040 fluorescence intensity (a.u.)
10,CTTTCTCCGTTTCTTCCATCTCCGTCAACCTACCGGCGTACGGAGTCACCTAGTGCAG,10900 fluorescence intensity (a.u.)
11,CCGTCATACACGCCAGCCCGCTGCTCACGCTGTCGTCACCCGGAGTCACCTAGTGCAG,8890 fluorescence intensity (a.u.)
12,CCATCAGGTGCGGTGGAGAACGAAACCCTACCTCCCAGCCCGGAGTCACCTAGTGCAG,8160 fluorescence intensity (a.u.)
13,AACCAGCAGTGCGGCACCTTTAATAAATTAAAGGTTTTTTCGGAGTCACCTAGTGCAG,8700 fluorescence intensity (a.u.)
14,GGTTACAGATCTGTAGTCCGTTACTCTTCTCTCTCTTCCTCGGAGTCACCTAGTGCAG,8820 fluorescence intensity (a.u.)
15,CCTTTTTCTTCTAATCTCCTCATTCTTCTTAATTCTTAAGCGGAGTCACCTAGTGCAG,10500 fluorescence intensity (a.u.)
16,AAACACGGCCATATTTTCTTTCTGGGTTTTGCAATCTTCTCGGAGTCACCTAGTGCAG,8690 fluorescence intensity (a.u.)
17,CCTTATCTCTTTCAGGTGGCACGCAGGGGAGGGAGGGAGCCGGAGTCACCTAGTGCAG,10200 fluorescence intensity (a.u.)
18,ACAAGCTTTTTAAGGCCATTTATAACCCTATTATTACACACGGAGTCACCTAGTGCAG,8690 fluorescence intensity (a.u.)
19,CTATTATTCGATTCTCTCCTGGGCCAAATTGACCTACTCTCGGAGTCACCTAGTGCAG,8220 fluorescence intensity (a.u.)
20,GCATCCATTGCCCAGTTTGGTAGTAATCCTGGATTCTTTTCGGAGTCACCTAGTGCAG,9300 fluorescence intensity (a.u.)
21,GATAGTGGTCTTGTTTACTTTATAGGAGCTTTCAACCAAACGGAGTCACCTAGTGCAG,11000 fluorescence intensity (a.u.)

row,Sequence,binding signal
1,GTTTTTCTCTCTCATTTCTATATGTGTTTGCAGGGGCGGACGGAGTCACCTAGTGCAG,11800 fluorescence intensity (a.u.)
2,GCCGCGCTCCTTCCTCGCCAGCCGCCAGCCGCCTCACCCCCGGAGTCACCTAGTGCAG,8280 fluorescence intensity (a.u.)
3,TTTAGCAGCCTGTTTATAGATTCTTTTTTAAAAAGAATACCGGAGTCACCTAGTGCAG,8990 fluorescence intensity (a.u.)
4,CTTGTTCTCTCCAGGTTCCAGTGCTAATAATTCCCATACTCGGAGTCACCTAGTGCAG,9660 fluorescence intensity (a.u.)
5,TTTTCGCTGGTTTTTTTCGCCTTTTTTTTCTGGATCGGACCGGAGTCACCTAGTGCAG,9150 fluorescence intensity (a.u.)
6,TCCGTGCTGCAGTTTTCCTTCTCTCTCTTCTCTTCTCTATCGGAGTCACCTAGTGCAG,8620 fluorescence intensity (a.u.)
7,AGGATAAGGGTATTTTGGTCATCTCAACAAGAAAAACATTCGGAGTCACCTAGTGCAG,9000 fluorescence intensity (a.u.)
8,TCCGATCTTACTCCCCACCCTGTCGCTGTGTGCCTCTCTCCGGAGTCACCTAGTGCAG,9340 fluorescence intensity (a.u.)
9,CCGTGGCATATAATGTCTATTTTTACTCCCTATTGTTTTTCGGAGTCACCTAGTGCAG,8240 fluorescence intensity (a.u.)
10,TGTCAGAATCCTGTGTTTTTCCTATTACTCTGTTTTTTCACGGAGTCACCTAGTGCAG,11400 fluorescence intensity (a.u.)
11,ATCTTCAGGCTAGACCGCCACCCATGTCCCTGGTAAAACACGGAGTCACCTAGTGCAG,8110 fluorescence intensity (a.u.)
12,TAGTTTTAATTGTTTTTCCGGATCAAATTGCCACGTAAGCCGGAGTCACCTAGTGCAG,8020 fluorescence intensity (a.u.)
13,CCCGTTGTCACCAACCTCCACGCAGGATCCGCACCGCCGCCGGAGTCACCTAGTGCAG,8200 fluorescence intensity (a.u.)
14,TGATGTGGATTTCTTTTACTCTCGTGTTCTAGTAGTTGTCCGGAGTCACCTAGTGCAG,8720 fluorescence intensity (a.u.)
15,ACCCTCTATCTCGTCCCATACGTCTCTGACCGCCGTACCCCGGAGTCACCTAGTGCAG,8730 fluorescence intensity (a.u.)
16,GTTGGATTGGCACCTTCTACCGACCGTGCACGTTCATCATCGGAGTCACCTAGTGCAG,8510 fluorescence intensity (a.u.)
17,GCAATCCGTCGGAATATCTCTCCCCGATCTCCTCTTCTTCCGGAGTCACCTAGTGCAG,8600 fluorescence intensity (a.u.)
18,GCCATAGCCGTTGCTCTTGTACTATATAGCCCACCCGTTTCGGAGTCACCTAGTGCAG,8820 fluorescence intensity (a.u.)
19,CCGCCCGACCACTATTCGTAGCCTCGTCGTAGTCAACACCCGGAGTCACCTAGTGCAG,9480 fluorescence intensity (a.u.)
20,CCTCCCCAACCACCCGCTGTGTCATCTGCGACCTCAATTTCGGAGTCACCTAGTGCAG,9880 fluorescence intensity (a.u.)
21,TGTTTCTTGATGTCTTCTTTCCAGGTGATTCGTGTTTCTTCGGAGTCACCTAGTGCAG,10500 fluorescence intensity (a.u.)

row,Sequence,binding signal
1,CCTCGCCCTCACCGTCTCCACCCGCCGCGCCGCGTCCCGGCGGAGTCACCTAGTGCAG,12200 fluorescence intensity (a.u.)
2,ACAGGAGAGTGATTACTTTTGCATTATTAATTGATGTTGTCGGAGTCACCTAGTGCAG,8400 fluorescence intensity (a.u.)
3,GTTGTCTGAATTTTTGTTCCGCACTTGGTGCCATCTAGTCCGGAGTCACCTAGTGCAG,8120 fluorescence intensity (a.u.)
4,CTCTCTCTCTCTCCGGCCTCCGGCTTCGCCTTCACGACGCCGGAGTCACCTAGTGCAG,10800 fluorescence intensity (a.u.)
5,CCACTCCATGTCCATGGCACTGCATCAAACCCTTCTCCTCCGGAGTCACCTAGTGCAG,10300 fluorescence intensity (a.u.)
6,CACGCATGTTTGCTTTGTCTTCTTACTTTGCACCTATCGCCGGAGTCACCTAGTGCAG,9200 fluorescence intensity (a.u.)
7,TATGGGTTCTCACTTTAGCTCCTTGTGCCACCTAAATTAACGGAGTCACCTAGTGCAG,8130 fluorescence intensity (a.u.)
8,AGCGCCTGCCACCCTGACACGTGTCCATCTGTTCGGACAACGGAGTCACCTAGTGCAG,8150 fluorescence intensity (a.u.)
9,TCCCCGCCACTACTACAATTCTCTCCTGTGCTGCTGCCCTCGGAGTCACCTAGTGCAG,11000 fluorescence intensity (a.u.)
10,ACCGTTAACTTTTTAGCATATGTTTGACTGTTCATCTTATCGGAGTCACCTAGTGCAG,11200 fluorescence intensity (a.u.)
11,CATTCCATTCCTTCTCCCTGTGCTCGGATTCCTGTTCTTGCGGAGTCACCTAGTGCAG,8160 fluorescence intensity (a.u.)
12,TCAGTTCGGCTCGCGGCTCGTCGTCTCCTTCGTCCTCCACCGGAGTCACCTAGTGCAG,9920 fluorescence intensity (a.u.)
13,CCACCCCGGCCGCCTCACCGCCGCGCCGTCCTCCTGCACGCGGAGTCACCTAGTGCAG,11800 fluorescence intensity (a.u.)
14,ACGACGCCCACGCACATCATCCCTCCGCGCAAAAGCCTATCGGAGTCACCTAGTGCAG,8910 fluorescence intensity (a.u.)
15,CGATTGCTGACTAGGATTGTTGACCTCACTTTTTTTTGTCCGGAGTCACCTAGTGCAG,9800 fluorescence intensity (a.u.)
16,CTTTTCCTGTTGCTCTATCGGTAGCTCCAATTTTCTCTTTCGGAGTCACCTAGTGCAG,10500 fluorescence intensity (a.u.)
17,TATGCAGGTGCCTCCACGCCTTTTTTTTTTCTTTTCTTTTCGGAGTCACCTAGTGCAG,9490 fluorescence intensity (a.u.)
18,CTTAGCTCAACACTATATAGTACTGCATGCGTTTGATATACGGAGTCACCTAGTGCAG,9170 fluorescence intensity (a.u.)
19,GCCTACAATTTGTAGTTTGTACTTCAATGATGTGATCAACCGGAGTCACCTAGTGCAG,8110 fluorescence intensity (a.u.)
20,ATATTTCCTCCGTGTCCATCCAGCATTCCATCGTGAAATTCGGAGTCACCTAGTGCAG,14600 fluorescence intensity (a.u.)
21,TTCATTTTTTCTATGGTTGGTTCTTGTGTGTCCTTAAGCGCGGAGTCACCTAGTGCAG,9860 fluorescence intensity (a.u.)
